Data as given in PubChem BioAssay AID602196 (INSERM, 2012)

- Test: 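Modifiers of cisplatin sensitivity in A549 cells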
- System: human A549 lung cancer cells
- Reagent: siRNA pair against human genes
- Timing: 48 h transfection before cisplatin; time from cisplatin to read-out not stated
- Challenge: cisplatin at a dose killing half of control-siRNA cells; exact dose and duration not given
- Read-out: 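Cisplatin cell death as a shift from the 50% death seen with control siRNA; siRNAs toxic or growth-blocking alone scored 0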
- Reading the numbers: two-siRNA summed score (-2 to +2): higher = both siRNAs protect from cisplatin killing; -2 means both sensitise; mean protection from cisplatin (shift in death) and protection from cisplatin (shift in death), siRNA C and protection from cisplatin (shift in death), siRNA D: higher = protection from cisplatin killing
- Active means: 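siRNAs harmful alone (LDH or WST-1) get 0; others get +1 for less and -1 for more cisplatin killing; genes are active when the two siRNAs give the same sign, summing to ±2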
- Meaning of the calls: active = both siRNAs shift cisplatin killing the same way; inactive = no consistent shift, or siRNA harmful alone
Here is an unselected part of about 23,000 reagents. In the full data, 455 (2%) are marked active. 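Active includes both protection and sensitisation; some change values fall well beyond the stated -50 to +50 range.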 Not stated in the record: the amount of reagent.

| Gene | two-siRNA summed score (-2 to +2) | mean protection from cisplatin (shift in death) (%) | protection from cisplatin (shift in death), siRNA C (%) | protection from cisplatin (shift in death), siRNA D (%) | activity call |
| --- | --- | --- | --- | --- | --- |
| KLK4 (kallikrein related peptidase 4) | 0 | -0.1 | 4.6 | -4.8 | inactive |
| BCL7C (BAF chromatin remodeling complex subunit BCL7C) | 0 | 6.2 | 14.5 | -2 | inactive |
| SAXO1 (stabilizer of axonemal microtubules 1) | 0 | 21.7 | -1.5 | 45 | inactive |
| CRHBP (corticotropin releasing hormone binding protein) | 0 | -7.1 | -6 | -8.2 | inactive |
| LANCL3 (LanC like family member 3) | 1 | 4.9 | -2.7 | 12.5 | inactive |
| RAB23 (RAB23, member RAS oncogene family) | 0 | -28.3 | -54.8 | -1.8 | inactive |
| LOC340542 | 0 | 2 | 0.5 | 3.5 | inactive |
| LOC389290 | 0 | -13.6 | -12.4 | -14.8 | inactive |
| LOC283480 | 0 | 6.2 | 4.9 | 7.6 | inactive |
| C1orf52 (chromosome 1 open reading frame 52) | 1 | 13 | 16.9 | 9 | inactive |
| CADM2 (cell adhesion molecule 2) | 1 | 18.5 | 37 | 0 | inactive |
| LOC442523 | 0 | 8.9 | 5.9 | 11.9 | inactive |
| PPP4R3B (protein phosphatase 4 regulatory subunit 3B) | 1 | 13 | 13.6 | 12.5 | inactive |
| ARHGEF5 (Rho guanine nucleotide exchange factor 5) | 0 | 1.7 | 16 | -12.6 | inactive |
| LOC389841 | 0 | -5.2 | -5.3 | -5.1 | inactive |
| LOC389055 | 0 | -1.3 | 5.6 | -8.2 | inactive |
| DLX3 (distal-less homeobox 3) | 0 | 5.9 | 14.5 | -2.7 | inactive |
| NUP62CL (nucleoporin 62 C-terminal like) | 0 | 14.2 | 7.7 | 20.7 | inactive |
| NCBP3 (nuclear cap binding subunit 3) | 0 | -1.3 | 0.9 | -3.5 | inactive |
| SLC2A4 | 0 | 8.5 | 10.3 | 6.7 | inactive |
| RBM6 (RNA binding motif protein 6) | 1 | 13.2 | 1.4 | 25 | inactive |
| MR1 (major histocompatibility complex, class I-related) | 1 | 3.8 | -8.5 | 16 | inactive |
| FMNL3 (formin like 3) | 0 | 8.2 | 12.9 | 3.5 | inactive |
| KDSR (3-ketodihydrosphingosine reductase) | 0 | -3.7 | -11.9 | 4.4 | inactive |
| NXN (nucleoredoxin) | 1 | -0.1 | 10.9 | -11.2 | inactive |
| PRDM13 (PR/SET domain 13) | -1 | -9.1 | 3.9 | -22.2 | inactive |
| ANXA8L1 (annexin A8 like 1) | 0 | 6.1 | 11.9 | 0.2 | inactive |
| LINC00545 (long intergenic non-protein coding RNA 545) | 1 | 19.1 | 17.6 | 20.6 | inactive |
| LOC441657 | 0 | 5.8 | 13.3 | -1.8 | inactive |
| PSAP (prosaposin) | 1 | 9.4 | 1.1 | 17.8 | inactive |
| DNAJB8 (DnaJ heat shock protein family (Hsp40) member B8) | -1 | -9.1 | -21.2 | 2.9 | inactive |
| ZNF618 (zinc finger protein 618) | 0 | 8.7 | 10.5 | 6.8 | inactive |
| MGC14276 | 0 | 8.9 | 7.2 | 10.6 | inactive |
| UBE2Q2 (ubiquitin conjugating enzyme E2 Q2) | 0 | 1.9 | 6.9 | -3.1 | inactive |
| BLMH (bleomycin hydrolase) | 0 | -7.1 | -4.3 | -9.8 | inactive |
| LOC439966 | 0 | 6.6 | 1.2 | 11.9 | inactive |
| DRAXIN (dorsal inhibitory axon guidance protein) | 1 | -0.3 | -10.1 | 9.4 | inactive |
| CEMIP (cell migration inducing hyaluronidase 1) | 0 | 8.6 | 8.7 | 8.4 | inactive |
| LOC392337 | 0 | 13.7 | 6.1 | 21.3 | inactive |
| THRA (thyroid hormone receptor alpha) | 0 | 8 | 0 | 16.1 | inactive |
| HLCS (holocarboxylase synthetase) | 0 | -13.3 | -25.1 | -1.4 | inactive |
| CBR1 (carbonyl reductase 1) | 0 | -3.3 | 3.2 | -9.9 | inactive |
| RMP24 (ribonuclease MRP subunit p24) | 0 | 0.1 | 2.2 | -2 | inactive |
| WTIP (WT1 interacting protein) | 0 | 7.6 | 5 | 10.2 | inactive |
| WDR1 (WD repeat domain 1) | 0 | -0.8 | 9 | -10.7 | inactive |
| SEC16A (SEC16 homolog A, endoplasmic reticulum export factor) | 1 | 4.2 | 20.8 | -12.5 | inactive |
| TAL2 (TAL bHLH transcription factor 2) | 0 | 0.4 | 1.7 | -0.9 | inactive |
| CELF2-AS2 (CELF2 antisense RNA 2) | 0 | 12.6 | 6.8 | 18.3 | inactive |
| PLAC1 (placenta associated 1) | 0 | 21.2 | 8.7 | 33.8 | inactive |
| OR6C4 (olfactory receptor family 6 subfamily C member 4) | 0 | 12.3 | 13.6 | 11 | inactive |
| CCDC170 (coiled-coil domain containing 170) | 0 | -0.1 | 4.4 | -4.5 | inactive |
| NLGN2 (neuroligin 2) | 0 | -0.2 | 16.8 | -17.2 | inactive |
| ADCY10 (adenylate cyclase 10) | 0 | 4.9 | 8.1 | 1.8 | inactive |
| AFAP1L1 (actin filament associated protein 1 like 1) | 0 | 5.9 | 0.8 | 11 | inactive |
| GCC2 (GRIP and coiled-coil domain containing 2) | 0 | 6.7 | -1.7 | 15.1 | inactive |
| LRAT (lecithin retinol acyltransferase) | 0 | -0.8 | 4 | -5.7 | inactive |
| POLR3F (RNA polymerase III subunit F) | 0 | 11.1 | 10.9 | 11.4 | inactive |

7 entries from above, reformatted:
KLK4 (kallikrein related peptidase 4)
- two-siRNA summed score (-2 to +2): 0
- mean protection from cisplatin (shift in death) (%): -0.1
- protection from cisplatin (shift in death), siRNA C (%): 4.6
- protection from cisplatin (shift in death), siRNA D (%): -4.8
- activity call: inactive

BCL7C (BAF chromatin remodeling complex subunit BCL7C)
- two-siRNA summed score (-2 to +2): 0
- mean protection from cisplatin (shift in death) (%): 6.2
- protection from cisplatin (shift in death), siRNA C (%): 14.5
- protection from cisplatin (shift in death), siRNA D (%): -2
- activity call: inactive

SAXO1 (stabilizer of axonemal microtubules 1)
- two-siRNA summed score (-2 to +2): 0
- mean protection from cisplatin (shift in death) (%): 21.7
- protection from cisplatin (shift in death), siRNA C (%): -1.5
- protection from cisplatin (shift in death), siRNA D (%): 45
- activity call: inactive

CRHBP (corticotropin releasing hormone binding protein)
- two-siRNA summed score (-2 to +2): 0
- mean protection from cisplatin (shift in death) (%): -7.1
- protection from cisplatin (shift in death), siRNA C (%): -6
- protection from cisplatin (shift in death), siRNA D (%): -8.2
- activity call: inactive

LANCL3 (LanC like family member 3)
- two-siRNA summed score (-2 to +2): 1
- mean protection from cisplatin (shift in death) (%): 4.9
- protection from cisplatin (shift in death), siRNA C (%): -2.7
- protection from cisplatin (shift in death), siRNA D (%): 12.5
- activity call: inactive

RAB23 (RAB23, member RAS oncogene family)
- two-siRNA summed score (-2 to +2): 0
- mean protection from cisplatin (shift in death) (%): -28.3
- protection from cisplatin (shift in death), siRNA C (%): -54.8
- protection from cisplatin (shift in death), siRNA D (%): -1.8
- activity call: inactive

LOC340542
- two-siRNA summed score (-2 to +2): 0
- mean protection from cisplatin (shift in death) (%): 2
- protection from cisplatin (shift in death), siRNA C (%): 0.5
- protection from cisplatin (shift in death), siRNA D (%): 3.5
- activity call: inactive
